# Several values for one entry are separate records, joined by “and”; a condition that tells them apart may be missing. Equal entries are not always repeated. The list shows a part of the results. Shown are side measurements of this screen, not its main read-out; they come without a call. Most of these compounds were active or inconclusive in the main read-out, so they are no random draw. Potencies come from curve fits of mixed quality, noted in brackets.
# Experiment: qHTS Assay to Find Inhibitors of Chronic Active B-Cell Receptor Signaling
# Conditions: ABC-DLBCL IkBa-CBG/CBR reporter, luminescence ratio (green luciferase fused to IkBa over red control in TMD8 lymphoma cells), 4 h
# Procedure, shortened: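 Cell line TMD8 (human ABC DLBCL), stably expressing tet-inducible CBG68-IkBa fusion and CBR; IMDM/0.5% FBS; cpd up to 46 uM; dox induction, 4 h, 37C/5% CO2; dual luminescence; green/red ratio; MG132 control.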
# [1] = measured here: CBR red luminescence, cell number
# [2] = measured here: IkBa-CBG green luminescence
Compound,AC50 [1],AC50 [2]
O=C(CN1CCN(C(=O)c2cccc(F)c2)CC1)NC1CCCCC1,"4.11 µM [falling, full curve, poor fit]",
N/N=C/C(=N\Nc1ccc(Cl)cc1)C(=O)c1ccncc1,"2.24 µM [rising, full curve, poor fit]",
CCCn1cnc2cc(NCc3cccc(OC)c3)ccc21,"5.17 µM [falling, partial curve]",
COc1ccccc1-c1nnc2sc(COc3ccc(Cl)cc3)nn12,"9.2 µM [falling, partial curve, poor fit]",
N#Cc1ccccc1OCC(=O)N1CCN(S(=O)(=O)c2ccc(Cl)cc2)CC1,"16.4 µM [falling, partial curve]",
CC1(C)Oc2ccc3ccc(=O)oc3c2-c2cn[nH]c21,,"3.26 µM [falling, single point]"
Cn1c2ccc(F)cc2c2ncn(CCN3CCOCC3)c(=O)c21,"0.00517 µM [rising, full curve, poor fit]",
Cc1cccc2cc(=O)[nH]c(C)c12,"10 µM [falling, partial curve]",
Cc1cc(=O)oc2cc(OCC(=O)N3CC[C@@]4(O)CCCC[C@H]4C3)c(Cl)cc12,"0.1 µM [rising, full curve, poor fit]",
CSc1nc2nccc(-c3ccc(-c4ccccc4)cc3)n2n1,"1.84 µM [rising, partial curve, poor fit]",
O=C(NC1CC1)C1CCN(S(=O)(=O)c2ccc(Cl)c([N+](=O)[O-])c2)CC1,"2.59 µM [falling, partial curve, poor fit]",
Cc1ccc(C)c(NC(=S)NNC(=O)c2csc3c2CCCC3)c1,"0.082 µM [falling, partial curve, poor fit]",
N#C/C(=C\c1cccc(O)c1)c1nc2ccccc2o1,"35.5 µM [falling, single point]",
CCCCNc1c(-c2ccc(SC3CCCCC3)cc2)nc2cnccn12,"4.61 µM [rising, full curve]",
C/C(CC(=O)Nc1ccc(Cl)cc1C(F)(F)F)=N\NC(=O)c1cccs1,"11.2 µM [falling, partial curve]",
O=C(CCCN1C(=O)/C(=C/c2cccc(Br)c2)SC1=S)N1CCOCC1,"4.47 µM [falling, full curve, poor fit]",
COC(=O)NNC(=O)c1ccc(C)c(Br)c1,"2.59 µM [rising, partial curve, poor fit]",
CN1CCN(CCC(=O)N2c3ccccc3Sc3ccc(C(F)(F)F)cc32)CC1,"5.8 µM [rising, full curve, poor fit]",
COc1ccc(CNC(=O)c2cnc(C)cn2)c(OC)c1,"35.5 µM [rising, single point]",
Cc1ccc(C)c(OCCCCN2CCNCC2)c1C,"35.5 µM [falling, single point]",
Cc1cccn2c(=O)c3cc(C(=O)NCC(C)C)sc3nc12,"3.16 µM [rising, partial curve, poor fit]",

# Fetched one by one from above (five):
Compound,AC50 [1],AC50 [2]
O=C(CN1CCN(C(=O)c2cccc(F)c2)CC1)NC1CCCCC1,"4.11 µM [falling, full curve, poor fit]",
N#C/C(=C\c1cccc(O)c1)c1nc2ccccc2o1,"35.5 µM [falling, single point]",
N#Cc1ccccc1OCC(=O)N1CCN(S(=O)(=O)c2ccc(Cl)cc2)CC1,"16.4 µM [falling, partial curve]",
CSc1nc2nccc(-c3ccc(-c4ccccc4)cc3)n2n1,"1.84 µM [rising, partial curve, poor fit]",
CN1CCN(CCC(=O)N2c3ccccc3Sc3ccc(C(F)(F)F)cc32)CC1,"5.8 µM [rising, full curve, poor fit]",

# (listing goes on)

Compound,AC50 [1],AC50 [2]
O=C(c1ccccc1Sc1c(Cl)cccc1[N+](=O)[O-])N1CCOCC1,"3.26 µM [rising, full curve, poor fit]",
O=C(CCN1CCCCC1)Nc1cccc(Cl)c1,"6.51 µM [rising, single point]",
Cc1nc(N)sc1-c1nnc(SCC(=O)Nc2ccccc2C(F)(F)F)n1C,"1.64 µM [falling, partial curve, poor fit]",
COc1ccccc1CNC(=O)CCN1C(=O)c2ccccc2C1=O,"5.01 µM [rising, full curve, poor fit]",
Cc1c(C(C)(C)C)sc(=NC(=O)c2ccccc2O)n1C,"0.398 µM [rising, full curve, poor fit]",
O=C(Nc1cc(-c2ccccc2)[nH]n1)c1ccc(Cl)cc1,"11.2 µM [falling, partial curve, poor fit] and 3.16 µM [falling, partial curve, poor fit]",
CCC(Sc1nc(C)cc(=O)[nH]1)C(=O)Nc1nc2c(s1)CCCC2 (stereo not drawn),"20 µM [falling, single point]","17.8 µM [falling, partial curve, poor fit]"
CCCCCCCC(=O)N/N=C/c1ccncc1,"3.16 µM [rising, single point]",
CCOc1ccc(C(=O)N2CCN(S(=O)(=O)c3cccs3)CC2)c(OCC)c1,"22.4 µM [falling, single point]",
COC(=O)c1ccc2c(=O)n(CCCCCC(=O)NCCc3ccccc3)c(=O)[nH]c2c1,"1 µM [falling, full curve, poor fit]","3.16 µM [rising, full curve, poor fit]"
Cc1nn(CC(=O)NC(C)CCc2ccccc2)c(=O)c2nn(-c3ccccc3)c(C)c12 (stereo not drawn),"7.94 µM [rising, partial curve, poor fit]",
CC1=NN(c2ccc([N+](=O)[O-])cc2)C(=O)/C1=C\N(C)C,"10.3 µM [falling, partial curve]",
C=CCSc1nc2c(cnn2-c2ccccc2)c(=O)n1N,"8.91 µM [falling, single point]",
COc1cccc(NC(=O)C(=O)NCCC2CCCCN2S(=O)(=O)c2ccccc2)c1 (stereo not drawn),"7.31 µM [falling, partial curve]",
O=C(Nc1ccc(OCC(=O)N2CCOCC2)cc1)Nc1cccc2ccccc12,"12.6 µM [falling, partial curve, poor fit]",
COc1ccc(CCNC(=O)C(=O)NCc2cccs2)cc1OC,"11.2 µM [rising, partial curve, poor fit]",
Cc1sc(NC(=O)c2ccc(Br)s2)c(C(N)=O)c1C,"0.0731 µM [rising, full curve]",
COc1cc(OC)cc(C(=O)NNC(=S)Nc2ccc(S(N)(=O)=O)cc2)c1,"3.98 µM [falling, partial curve, poor fit]","25.1 µM [falling, single point]"
O=C(N/N=C/c1c(Cl)[nH]c2ccccc12)c1sc2ccccc2c1Cl,"29.1 µM [falling, single point]","20.6 µM [rising, partial curve, poor fit]"
O=C(Nc1ccc2c(c1)oc1ccccc12)c1ccc2c(c1)OCO2,"3.16 µM [falling, full curve, poor fit]",
O=C(/C=C/c1cccs1)Nc1nccs1,"3.98 µM [falling, partial curve, poor fit]","3.55 µM [rising, full curve, poor fit]"

Compound,AC50 [1],AC50 [2]
Nc1c(N2CCCCC2)c(=O)[nH]c(=O)n1-c1ccccc1,"23.1 µM [rising, single point]",
CCC(=NCc1ccccc1)c1c(C(F)(F)F)[nH]n(-c2nc3ccccc3s2)c1=O,"14.6 µM [falling, partial curve]",
O=C(Nc1ccccn1)c1ccc(-c2ccccc2)cc1,"4.47 µM [falling, partial curve]",
Clc1ccccc1N1CCN(c2ncnc3nc[nH]c23)CC1,"29.1 µM [rising, single point]",
CCCc1[nH]n(-c2ccc([N+](=O)[O-])cc2)c(=O)c1C(C)=NCc1ccncc1,"3.55 µM [rising, single point]",
Nc1cc(N)nc(SCCOc2ccccc2)n1,"0.562 µM [rising, full curve, poor fit]",
O=C1CCCN1CCC(=O)N1CCCC(CO)(Cc2ccccc2)C1 (stereo not drawn),"12.6 µM [rising, partial curve]",
CC(=O)Nc1cccc(-c2nc(-c3ccccc3)no2)c1,"10 µM [falling, partial curve]",
O=C(NNc1ccccc1Cl)C(O)(c1cccc(C(F)(F)F)c1)c1cccc(C(F)(F)F)c1,"29.1 µM [falling, single point]",
Cc1ccc(O)c(C(=O)/C=C/c2ccc3c(c2)OCCCO3)c1,"14.6 µM [falling, partial curve, poor fit]",
O=[N+]([O-])c1ccc(O)c(Nc2c([N+](=O)[O-])ccc3nonc23)c1,"17.8 µM [rising, single point]",
Cc1c(C(=O)N2CCN(S(C)(=O)=O)CC2)oc2ccccc12,"16.4 µM [rising, partial curve, poor fit]","16.4 µM [falling, partial curve, poor fit]"
Cc1cc(C)cc(NC(=S)Nc2ccc3cn[nH]c3c2)c1,"29.1 µM [falling, partial curve, poor fit]",
O=c1c2[nH]c3ccccc3c2ncn1C1CCCCC1,"6.31 µM [falling, partial curve, poor fit]",
O=C(c1ccco1)N1CCCN(Cc2nc(-c3cccs3)no2)CC1,"3.98 µM [rising, single point]",
CCOc1ccc2c(c1)C(=NNC(=O)c1ccncc1)c1cc(OCC)ccc1-2,"20.6 µM [rising, single point]",
CCc1ccc(Nc2nnc(SCc3cc(=O)n4ccsc4n3)s2)cc1,"14.6 µM [rising, partial curve, poor fit]",
O=C(NCC(c1ccco1)N1CCN(c2ccccc2F)CC1)OCc1ccccc1 (stereo not drawn),,"18.4 µM [falling, single point]"
Oc1ccc(N=Nc2nccs2)c(O)c1,"1.26 µM [rising, full curve]",
O=C(CSc1ncc(-c2ccccc2)[nH]1)Nc1ccccc1,"2.91 µM [rising, partial curve, poor fit]",

# Source: PubChem BioAssay AID493014 (National Center for Advancing Translational Sciences (NCATS), 2011)
